{"sequences": {"note": "Chains of the proteins cited; added tags and fusions are not shown. Lines headed by an entry give the natural chain unless they say otherwise; changes in a name come on top.", "UniProt P19838": "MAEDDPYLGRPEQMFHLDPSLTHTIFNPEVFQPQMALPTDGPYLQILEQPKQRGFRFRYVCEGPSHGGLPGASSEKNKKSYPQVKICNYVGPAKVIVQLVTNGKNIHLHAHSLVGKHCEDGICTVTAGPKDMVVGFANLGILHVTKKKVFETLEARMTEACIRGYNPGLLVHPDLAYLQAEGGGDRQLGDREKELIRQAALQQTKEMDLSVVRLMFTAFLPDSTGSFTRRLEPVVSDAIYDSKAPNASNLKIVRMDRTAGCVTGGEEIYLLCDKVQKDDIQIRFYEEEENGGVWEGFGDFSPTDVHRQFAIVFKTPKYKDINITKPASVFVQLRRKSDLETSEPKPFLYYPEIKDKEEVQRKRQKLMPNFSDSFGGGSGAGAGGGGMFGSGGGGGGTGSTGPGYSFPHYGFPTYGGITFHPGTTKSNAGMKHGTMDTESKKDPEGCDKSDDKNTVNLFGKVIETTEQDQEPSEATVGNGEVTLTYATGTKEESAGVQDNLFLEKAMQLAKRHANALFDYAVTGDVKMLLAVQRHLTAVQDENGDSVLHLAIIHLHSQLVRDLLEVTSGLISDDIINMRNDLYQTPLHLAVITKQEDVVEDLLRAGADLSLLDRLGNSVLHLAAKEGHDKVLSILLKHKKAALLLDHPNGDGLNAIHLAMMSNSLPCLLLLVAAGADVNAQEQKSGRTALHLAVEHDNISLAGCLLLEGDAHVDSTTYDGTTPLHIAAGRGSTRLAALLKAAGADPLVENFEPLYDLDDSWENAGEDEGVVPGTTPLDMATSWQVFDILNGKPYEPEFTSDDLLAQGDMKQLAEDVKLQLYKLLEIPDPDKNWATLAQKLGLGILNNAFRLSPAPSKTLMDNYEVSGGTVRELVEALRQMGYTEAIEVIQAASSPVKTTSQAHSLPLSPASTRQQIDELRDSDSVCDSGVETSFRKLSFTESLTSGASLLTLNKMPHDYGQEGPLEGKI", "UniProt Q96P20": "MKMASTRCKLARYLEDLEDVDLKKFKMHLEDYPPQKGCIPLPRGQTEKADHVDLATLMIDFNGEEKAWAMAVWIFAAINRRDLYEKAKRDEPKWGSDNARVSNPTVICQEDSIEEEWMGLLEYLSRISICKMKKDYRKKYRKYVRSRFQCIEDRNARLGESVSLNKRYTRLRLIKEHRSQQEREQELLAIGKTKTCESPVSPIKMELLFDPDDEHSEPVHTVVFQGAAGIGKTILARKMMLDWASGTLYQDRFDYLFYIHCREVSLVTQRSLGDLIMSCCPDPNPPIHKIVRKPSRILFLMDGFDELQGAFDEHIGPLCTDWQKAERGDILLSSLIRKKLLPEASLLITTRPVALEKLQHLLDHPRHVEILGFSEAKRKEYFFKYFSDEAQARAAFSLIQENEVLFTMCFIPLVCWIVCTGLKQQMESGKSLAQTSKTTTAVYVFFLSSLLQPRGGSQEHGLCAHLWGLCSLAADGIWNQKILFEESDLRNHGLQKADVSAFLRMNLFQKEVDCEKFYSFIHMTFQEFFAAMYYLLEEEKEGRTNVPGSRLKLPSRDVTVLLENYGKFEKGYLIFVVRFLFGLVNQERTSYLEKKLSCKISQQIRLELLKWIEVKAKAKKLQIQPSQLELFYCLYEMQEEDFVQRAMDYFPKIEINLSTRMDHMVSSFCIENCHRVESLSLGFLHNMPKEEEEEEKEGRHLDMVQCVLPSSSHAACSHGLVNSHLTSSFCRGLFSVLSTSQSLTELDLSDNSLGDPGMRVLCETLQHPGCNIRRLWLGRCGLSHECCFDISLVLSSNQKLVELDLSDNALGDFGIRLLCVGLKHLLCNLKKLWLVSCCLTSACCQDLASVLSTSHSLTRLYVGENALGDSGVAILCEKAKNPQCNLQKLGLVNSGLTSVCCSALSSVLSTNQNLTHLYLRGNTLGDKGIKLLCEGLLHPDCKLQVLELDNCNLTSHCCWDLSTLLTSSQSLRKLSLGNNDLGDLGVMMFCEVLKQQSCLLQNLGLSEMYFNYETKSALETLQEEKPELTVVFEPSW"}, "source": "paper doi:10.1101/2024.01.12.575466", "target": "GST-NF-κB protein (UniProt P19838)", "experiment": "pull-down", "note": "These are yes or no findings as the source states them, for the method shown. Binding calls can cover weak binding; strength is not graded here.", "data": [{"substance": "His-NLRP3 protein (from UniProt Q96P20 1-1036)", "values": [{"measurement": "binding", "value": "binds"}]}]}
